In PMC7793252:

Biological target: TgPPM3C-HA (Toxoplasma gondii (endogenous locus in Prugniaud Δku80Δhxgprt parasites))
Assay: affinity purification with mass spectrometry; anti-HA magnetic beads incubated overnight at 4°C with cleared lysate of HFF monolayers infected 24 h with TgPPM3C-HA tachyzoites (control: untagged PruQ); lysis buffer 50 mM Tris pH 7.4, 200 mM NaCl, 1% Triton X-100, 0.5% CHAPS with protease and phosphatase inhibitors; washes up to 300 mM NaCl, 0.1% Triton X-100; eluates analysed by LC-MS/MS; two independent experiments

B1: GRA7 (protein, UniProt O00933 27-236)
chain: ATASDDELMSRIRNSDFFDGQAPVDSLRPTNAGVDSKGTDDHLTTSMDKASVESQLPRREPLETEPDEQEEVHFRKRGVRSDAEVTDDNIYEEHTDRKVVPRKSEGKRSFKDLLKKLALPAVGMGASYFAADRLVPELTEEQQRGDEPLTTGQNVGTVLGFAALAAAAAFLGMGLTRTYRHFSPRKNRSRQPALEQEVPESGEDGEDARQ
  binding: binds

These are yes or no findings as the source states them, for the method shown. Binding seen in cells or lysates may run through a third protein. These calls come from enrichment with a bait or labelling near it, and not all partners need be listed.
